The target in test [1] is CD137 as part of a cell membrane (UniProt Q07011). Put plainly: FACS on cells.
In the next test the target is CD137 (UniProt Q07011). Put plainly: ELISA, CD137 on plastic.

By UniProt entry, the sequences of proteins in these tests, tags left out. Where a name states a change or a piece, a line headed by the entry shows the natural chain unless it says otherwise. Residues count along the entry.
UniProt Q07011: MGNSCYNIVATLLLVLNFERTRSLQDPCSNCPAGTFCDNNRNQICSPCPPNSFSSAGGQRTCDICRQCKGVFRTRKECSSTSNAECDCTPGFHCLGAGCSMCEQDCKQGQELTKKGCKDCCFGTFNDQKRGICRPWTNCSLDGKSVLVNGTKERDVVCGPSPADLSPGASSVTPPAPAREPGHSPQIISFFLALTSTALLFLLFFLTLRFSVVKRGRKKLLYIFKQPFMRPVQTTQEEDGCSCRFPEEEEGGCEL
CD137 as part of a cell membrane: residues 24-255 of Q07011
CD137: residues 24-186 of Q07011

We go through one molecule from patent US20230125550A1 (ARCELLX, published 2023).

These are yes or no findings as the source states them, for the method shown. Some binding calls cover weakened binding; strength is not graded here.

B1: DDpp CD137-binder bb10 (designed binder)
chain: MGSWAEFKQRLAAIKTRLEALGGSEAELAAFLGEIWAFEMELAAYKGKGNPEVEALGREAAAIRMELQAYRHN
As to B1, the binding result (in test [1]; with CD137) was “binds” throughout.
